Experimental findings from article doi:10.1101/2022.03.05.483071 are described below.

Protein sequences, listed by entry. Tags and fused reporters are not part of them.
UniProt Q12840: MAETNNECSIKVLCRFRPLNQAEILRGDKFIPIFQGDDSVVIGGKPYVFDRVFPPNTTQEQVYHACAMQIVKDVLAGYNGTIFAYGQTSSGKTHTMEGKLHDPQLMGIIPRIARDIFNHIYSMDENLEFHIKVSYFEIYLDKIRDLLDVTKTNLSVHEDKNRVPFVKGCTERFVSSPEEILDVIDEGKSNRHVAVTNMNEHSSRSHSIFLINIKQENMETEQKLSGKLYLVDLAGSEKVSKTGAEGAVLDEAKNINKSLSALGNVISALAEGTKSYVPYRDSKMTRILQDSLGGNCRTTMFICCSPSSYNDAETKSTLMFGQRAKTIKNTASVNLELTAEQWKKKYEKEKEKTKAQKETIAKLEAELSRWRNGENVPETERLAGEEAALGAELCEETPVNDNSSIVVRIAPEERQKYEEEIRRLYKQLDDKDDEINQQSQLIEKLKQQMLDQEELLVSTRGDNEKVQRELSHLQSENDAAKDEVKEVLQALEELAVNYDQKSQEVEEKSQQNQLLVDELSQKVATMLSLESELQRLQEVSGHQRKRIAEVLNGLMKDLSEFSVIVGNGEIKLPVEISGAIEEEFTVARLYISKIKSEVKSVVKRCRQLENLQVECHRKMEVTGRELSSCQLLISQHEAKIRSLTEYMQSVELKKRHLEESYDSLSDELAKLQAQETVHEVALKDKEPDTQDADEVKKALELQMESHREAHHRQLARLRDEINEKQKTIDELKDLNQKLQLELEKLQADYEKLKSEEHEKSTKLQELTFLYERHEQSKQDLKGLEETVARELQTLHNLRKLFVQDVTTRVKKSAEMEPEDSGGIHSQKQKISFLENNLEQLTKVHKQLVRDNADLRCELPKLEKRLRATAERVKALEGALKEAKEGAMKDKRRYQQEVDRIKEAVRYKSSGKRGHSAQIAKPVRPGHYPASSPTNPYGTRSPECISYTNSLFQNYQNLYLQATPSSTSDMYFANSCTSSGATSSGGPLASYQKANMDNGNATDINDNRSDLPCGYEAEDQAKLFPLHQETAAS

These are yes or no findings as the source states them, for the method shown. In cells and extracts the contact can be indirect.

The target in this assay is FLAG-KIF5A WT (human kinesin family member 5A, full length wild type) (human) (UniProt Q12840). As to the kind of experiment: co-IP.

Turning to p62 (from UniProt Q13501 1-440), the binding result is recorded as “no binding”.
